Data source: PubChem BioAssay AID1259425 (University of Nebraska Medical Center, 2018)

Purpose: 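Compare each knockdown with KSR1 silencing using changes in marker transcripts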 (primary screen)
Cell system: HCT116 human colon cancer cells
Knock-down reagent: siRNA pool against human genes, 50 nM siRNA
Measured: 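mRNA of six signature genes measured together by branched-DNA assay after 50 nM siRNA pool, blank removed, divided by geometric mean of two housekeeping genes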
Reading the numbers: BNIP3L mRNA: higher = more BNIP3L transcript after knockdown; NDRG1 mRNA: higher = more NDRG1 transcript after knockdown; BNIP3 mRNA: higher = more BNIP3 transcript after knockdown; ALDOC mRNA: higher = more ALDOC transcript after knockdown; ACSL5 mRNA: higher = more ACSL5 transcript after knockdown
In all, the deposit lists about 14,000 reagents; below is a random part of them. Not stated in the record: the time to read-out.

| Target gene | BNIP3L mRNA, set 1 | NDRG1 mRNA, set 1 | BNIP3 mRNA, set 1 | ALDOC mRNA, set 1 | ACSL5 mRNA, set 1 |
| --- | --- | --- | --- | --- | --- |
| TMEM242 (transmembrane protein 242) | 0.0664 | 0.112 | 0.43 | 0.0133 | 0.199 |
| STAG3L4 (STAG3 cohesin complex component like 4 (pseudogene)) | 0.248 | 0.149 | 0.363 | 0.0538 | 0.116 |
| NDUFA1 (NADH:ubiquinone oxidoreductase subunit A1) | 0.0515 | 0.266 | 0.199 | 0.0318 | 0.215 |
| KIF22 (kinesin family member 22) | 0.065 | 0.0956 | 0.169 | 0.032 | 0.268 |
| RNMT (RNA guanine-7 methyltransferase) | 0.0783 | 0.217 | 0.295 | 0.0259 | 0.098 |
| GRIA1 (glutamate ionotropic receptor AMPA type subunit 1) | 0.0606 | 0.063 | 0.202 | 0.0189 | 0.051 |
| ALDH3A1 (aldehyde dehydrogenase 3 family member A1) | 0.12 | 0.205 | 0.293 | 0.00943 | 0.149 |
| ABCC13 (ATP binding cassette subfamily C member 13 (pseudogene)) | 0.0554 | 0.174 | 0.368 | 0.0297 | 0.0826 |
| HNF1A (HNF1 homeobox A) | 0.176 | 0.217 | 0.327 | 0.00848 | 0.225 |
| CNN1 (calponin 1) | 0.0662 | 0.0877 | 0.316 | 0.0247 | 0.0917 |
| AP2A1 (adaptor related protein complex 2 subunit alpha 1) | 0.138 | 0.196 | 0.261 | 0.0843 | 0.402 |
| HSPA4 (heat shock protein family A (Hsp70) member 4) | 0.0903 | 0.086 | 0.288 | 0.00761 | 0.161 |
| SLC12A8 | 0.16 | 0.482 | 0.232 | 0.0337 | 0.359 |
| ACOX3 (acyl-CoA oxidase 3, pristanoyl) | 0.104 | 0.233 | 0.311 | 0.0271 | 0.194 |
| AHI1 (Abelson helper integration site 1) | 0.149 | 0.395 | 0.305 | 0.0314 | 0.318 |
| CHST6 (carbohydrate sulfotransferase 6) | 0.0815 | 0.149 | 0.244 | 0.0106 | 0.154 |
| MAPK8 (mitogen-activated protein kinase 8) | 0.108 | 0.299 | 0.328 | 0.0101 | 0.183 |
| COL8A1 (collagen type VIII alpha 1 chain) | 0.0455 | 0.0742 | 0.227 | 0.032 | 0.116 |
| PLS1 (plastin 1) | 0.105 | 0.177 | 0.239 | 0.0218 | 0.107 |
| CDK10 (cyclin dependent kinase 10) | 0.134 | 0.171 | 0.481 | 0.00481 | 0.195 |
| DDC (dopa decarboxylase) | 0.0459 | 0.0866 | 0.341 | 0.0297 | 0.145 |
| SMN2 (survival of motor neuron 2, centromeric) | 0.107 | 0.172 | 0.339 | 0.0086 | 0.128 |
| ANK3 (ankyrin 3) | 0.0948 | 0.153 | 0.206 | 0.0126 | 0.129 |
| ZBTB44 (zinc finger and BTB domain containing 44) | 0.0451 | 0.201 | 0.256 | 0.0167 | 0.265 |
| HACD2 (3-hydroxyacyl-CoA dehydratase 2) | 0.0955 | 0.513 | 0.271 | 0.0339 | 0.251 |
| INPP5B (inositol polyphosphate-5-phosphatase B) | 0.0528 | 0.339 | 0.226 | 0.0416 | 0.141 |
| ANAPC4 (anaphase promoting complex subunit 4) | 0.107 | 0.188 | 0.232 | 0.0168 | 0.141 |
| MAD2L2 (mitotic arrest deficient 2 like 2) | 0.0624 | 0.498 | 0.255 | 0.0112 | 0.383 |
| GAST (gastrin) | 0.0744 | 0.123 | 0.213 | 0.0356 | 0.0808 |
| GJB2 (gap junction protein beta 2) | 0.0743 | 0.597 | 0.223 | 0.0289 | 0.208 |
| PSME3 (proteasome activator subunit 3) | 0.105 | 0.429 | 0.199 | 0.0237 | 0.295 |
| CCZ1 (CCZ1 vacuolar protein trafficking and biogenesis associated) | 0.106 | 0.286 | 0.296 | 0.0289 | 0.278 |
| U2AF2 (U2 small nuclear RNA auxiliary factor 2) | 0.153 | 0.262 | 0.255 | 0.0674 | 0.0347 |
| BST1 (bone marrow stromal cell antigen 1) | 0.192 | 0.247 | 0.232 | 0.0269 | 0.267 |
| CKS2 (CDC28 protein kinase regulatory subunit 2) | 0.159 | 0.158 | 0.393 | 0.0122 | 0.174 |
| TIMM10B (translocase of inner mitochondrial membrane 10B) | 0.148 | 0.21 | 0.281 | 0.014 | 0.159 |
| PPP6R3 (protein phosphatase 6 regulatory subunit 3) | 0.106 | 0.214 | 0.337 | 0.0239 | 0.213 |
| CHRND (cholinergic receptor nicotinic delta subunit) | 0.0587 | 0.478 | 0.201 | 0.0155 | 0.149 |
| HSD17B12 (hydroxysteroid 17-beta dehydrogenase 12) | 0.0625 | 0.139 | 0.332 | 0.0211 | 0.16 |
| PMS2 (PMS1 homolog 2, mismatch repair system component) | 0.046 | 0.12 | 0.399 | 0.0116 | 0.172 |
| CCPG1 (cell cycle progression 1) | 0.103 | 0.158 | 0.266 | 0.0209 | 0.246 |
| CCNB2 (cyclin B2) | 0.0607 | 0.208 | 0.266 | 0.0175 | 0.0946 |
| NT5C3A (5'-nucleotidase, cytosolic IIIA) | 0.084 | 0.197 | 0.22 | 0.0167 | 0.145 |
| ABHD16A (abhydrolase domain containing 16A, phospholipase) | 0.0629 | 0.248 | 0.352 | 0.0409 | 0.222 |
| MAP1A (microtubule associated protein 1A) | 0.136 | 0.188 | 0.428 | 0.0257 | 0.0921 |
| SCRN3 (secernin 3) | 0.103 | 0.179 | 0.327 | 0.0213 | 0.255 |
| SIGLEC9 (sialic acid binding Ig like lectin 9) | 0.0781 | 0.0547 | 0.388 | 0.0197 | 0.0911 |
| PNOC (prepronociceptin) | 0.156 | 0.183 | 0.189 | 0.02 | 0.247 |
| MAFF (MAF bZIP transcription factor F) | 0.132 | 0.142 | 0.333 | 0.0128 | 0.191 |
| NFIC (nuclear factor I C) | 0.109 | 0.0484 | 0.309 | 0.00561 | 0.148 |
| SDS (serine dehydratase) | 0.214 | 0.68 | 0.401 | 0.109 | 0.275 |
| SOX11 (SRY-box transcription factor 11) | 0.201 | 0.874 | 0.436 | 0.0685 | 0.229 |
| EIF3J (eukaryotic translation initiation factor 3 subunit J) | 0.0809 | 0.517 | 0.297 | -0.00657 | 0.36 |
| TRIM8 (tripartite motif containing 8) | 0.144 | 0.158 | 0.178 | 0.0308 | 0.168 |
| EPS8L2 (EPS8 signaling adaptor L2) | 0.264 | 0.896 | 0.439 | 0.0275 | 0.202 |
| FUT3 (fucosyltransferase 3 (Lewis blood group)) | 0.162 | 0.135 | 0.323 | 0.0101 | 0.145 |
| HJURP (Holliday junction recognition protein) | 0.181 | 0.0911 | 0.363 | 0.0276 | 0.172 |
| BPGM (bisphosphoglycerate mutase) | 0.0486 | 0.407 | 0.177 | 0.0123 | 0.199 |
| RTEL1 (regulator of telomere elongation helicase 1) | 0.134 | 0.257 | 0.312 | 0.0271 | 0.124 |
| FAM50A (family with sequence similarity 50 member A) | 0.11 | 0.355 | 0.268 | 0.0174 | 0.22 |
| TBX20 (T-box transcription factor 20) | 0.0823 | 0.194 | 0.411 | 0.0336 | 0.361 |
| ELOVL2 (ELOVL fatty acid elongase 2) | 0.143 | 0.103 | 0.373 | 0.02 | 0.159 |
| ATP13A4 (ATPase 13A4) | 0.623 | 0.808 | 0.524 | 0.152 | 0.387 |

Reprinted from above (5 entries):
| Target gene | BNIP3L mRNA, set 1 | NDRG1 mRNA, set 1 | BNIP3 mRNA, set 1 | ALDOC mRNA, set 1 | ACSL5 mRNA, set 1 |
| --- | --- | --- | --- | --- | --- |
| MAFF (MAF bZIP transcription factor F) | 0.132 | 0.142 | 0.333 | 0.0128 | 0.191 |
| NFIC (nuclear factor I C) | 0.109 | 0.0484 | 0.309 | 0.00561 | 0.148 |
| SDS (serine dehydratase) | 0.214 | 0.68 | 0.401 | 0.109 | 0.275 |
| SOX11 (SRY-box transcription factor 11) | 0.201 | 0.874 | 0.436 | 0.0685 | 0.229 |
| EIF3J (eukaryotic translation initiation factor 3 subunit J) | 0.0809 | 0.517 | 0.297 | -0.00657 | 0.36 |
